Results are given in words; binding and its absence hold for the method and conditions named. Binding can be weak; no strength is given.
Target: T1, biotinylated Podocalyxin partial tail peptide … (including the ezrin binding site) (chicken)
T1 sequence (peptide, biotin, with a spacer (end not stated)): HQRFSQKKSQQRLTEELQ
Assay: pull-down; biotinylated Podocalyxin peptides (4.3 nmol) bound to streptavidin-sepharose, incubated 2 hours at 4°C with GST-N'ezrin (equimolar to 20 µg GST) in 150 mM NaCl, 20 mM Tris (pH7), 0.2% Triton X-100; bound protein detected by anti-GST Western blot; both purified

binding: binds
Substance: GST-N'ezrin (N-terminal domain of ezrin fused with GST) (domain or fragment)

Source: publication PMC1796660
